Results as given in PubChem BioAssay AID540256 (National Center for Advancing Translational Sciences (NCATS), 2011).
About 3,700 (1.2%) of roughly 300,000 compounds were called active. The inconclusive results got no clear call from the source; some entries with a clear call stand among them for comparison. The call rests on the fitted dose curve; tested in HEK293 cells. Potencies of inconclusive entries are doubtful fits and often do not repeat.

Test: qHTS for Inhibitors of binding or entry into cells for Lassa Virus; further: nearly all actives have a fitted effect of over 50% in size
Conditions: Lassa virus pseudotype entry inhibition, cell reporter; activity change, negative = inhibition: at 37.9 µM (top of the series) unless noted
On the % scale 0 is the no-effect control and ±100 the full control effect; potency means the concentration at half of the fitted maximal effect.

| SMILES | Potency | activity change, negative = inhibition |
| --- | --- | --- |
| FC(F)Sc1ccc(NC(=S)NCc2ccccc2)cc1 | inconclusive: 35.5 µM [inhibitor, single point] | – |
| CCOc1ccc(-c2nnc(SCC(=O)NCc3ccccc3)nc2-c2ccc(OCC)c(OC)c2)cc1OC | inconclusive: 2.24 µM [inhibitor, partial curve, poor fit] | – |
| Cc1cc(C)cc(OCC(=O)Nc2ccccc2N2CCCCC2)c1 | inconclusive: 3.98 µM [inhibitor, single point] | – |
| COc1ccc(OC)c(CCNC(=O)Cn2nc(C)c3c(C)n(-c4ccc(C)cc4)nc3c2=O)c1 | inconclusive: 0.708 µM [inhibitor, full curve, poor fit] | – |
| C[N+]1(C)CC2([N+](=O)[O-])CC=C(Oc3ccccc3)C([N+](=O)[O-])(C2)C1 (stereo unspecified) | inconclusive: 1.41 µM [inhibitor, single point] | – |
| COc1cccc(C(C(=O)NC(C)(C)C)N(Cc2ccco2)C(=O)CCC(=O)Nc2cc(C)on2)c1OC (stereo unspecified) | – | inactive: -0.579% [at 46.1 µM] |
| Cc1nc2cc3c(cc2s1)OCO3 | – | inactive: 3.6% |
| CC1CCCCN1S(=O)(=O)c1ccc(S(=O)(=O)N(Cc2ccccc2)Cc2ccco2)cc1 (stereo unspecified) | inconclusive: 2.31 µM [inhibitor, partial curve, poor fit] | – |
| COc1cc(OC)cc(C(=O)Nc2ccc3c(c2)N(C2CCCC2)C(=O)c2ccccc2S3)c1 | inconclusive: 1.26 µM [inhibitor, full curve, poor fit] | – |
| O=C(NCc1ccccc1Cl)c1cc2ccccc2o1 | inconclusive: 12.6 µM [inhibitor, partial curve, poor fit] | – |
| CCOc1ccc(/C=C/C(=O)Nc2ccccc2C(F)(F)F)cc1 | inconclusive: 3.16 µM [activator, full curve, poor fit] | – |
| Cc1ccc(C(C(=O)Nc2ccc3c(c2)OCO3)N(C)C(=O)Cc2c[nH]c3ccccc23)cc1 (stereo unspecified) | inconclusive: 6.31 µM [inhibitor, full curve, poor fit] | – |
| O=C(Nc1cc(Cl)ccc1Cl)C1CC(=O)N(c2ccc(Br)cc2)C1 (stereo unspecified) | – | inactive: -30.5% |
| Cc1ccc(CNC(=O)c2cccnc2Cl)cc1 | inconclusive: 0.891 µM [activator, full curve, poor fit] | – |
| Cc1ccc(C(=O)CCC(=O)Nc2ccc(Cl)c(S(=O)(=O)Nc3cccc(Cl)c3)c2)cc1 | inconclusive: 10.3 µM [inhibitor, partial curve, poor fit] | – |
| CCC1CCCCN1S(=O)(=O)c1ccc(NC(=O)c2ccncc2)cc1 (stereo unspecified) | inconclusive: 7.94 µM [inhibitor, partial curve, poor fit] | – |
| CC(C)Oc1ccc(/C(O)=C2/C(=O)C(=O)N(CCN(C)C)C2c2ccco2)cc1 (stereo unspecified) | – | inactive: 15.2% |
| CCc1ccc(Nc2ccc(S(=O)(=O)N3CCOCC3)cc2[N+](=O)[O-])cc1 | inconclusive: 35.5 µM [inhibitor, partial curve, poor fit] | – |
| NCCc1ccc(O)c(O)c1 | inactive | – |
| COC(=O)CN1C(=O)C(C)(C)Oc2ccc(C(=O)NC3CCCC3)cc21 | – | inactive: -9.7% |
| COC(=O)Oc1ccc(/C=N/NC(=O)CSCc2ccccc2Br)cc1OC | inconclusive: 20 µM [inhibitor, single point] | – |
| Cc1csc(SCC(=O)Nc2nc(-c3ccccc3)cs2)n1 | – | inactive: -1.91% |

Of the compounds above, these contain a furan ring, fused or not.

| SMILES | Potency | activity change, negative = inhibition |
| --- | --- | --- |
| COc1cccc(C(C(=O)NC(C)(C)C)N(Cc2ccco2)C(=O)CCC(=O)Nc2cc(C)on2)c1OC (stereo unspecified) | – | inactive: -0.579% [at 46.1 µM] |
| CC1CCCCN1S(=O)(=O)c1ccc(S(=O)(=O)N(Cc2ccccc2)Cc2ccco2)cc1 (stereo unspecified) | inconclusive: 2.31 µM [inhibitor, partial curve, poor fit] | – |
| O=C(NCc1ccccc1Cl)c1cc2ccccc2o1 | inconclusive: 12.6 µM [inhibitor, partial curve, poor fit] | – |
| CC(C)Oc1ccc(/C(O)=C2/C(=O)C(=O)N(CCN(C)C)C2c2ccco2)cc1 (stereo unspecified) | – | inactive: 15.2% |

(continued)

| SMILES | Potency | activity change, negative = inhibition |
| --- | --- | --- |
| COc1ccc(OC)c(Nc2ncnc3c2cnn3-c2ccc(C)cc2)c1 | inconclusive: 31.6 µM [activator, single point] | – |
| COc1ccc(CC2(C)OC(c3ccc(Cl)cc3)=NN2C(C)=O)cc1 (stereo unspecified) | inconclusive: 0.461 µM [inhibitor, full curve] | – |
| CCN(C(=O)c1ccc(S(=O)(=O)N2CCC(C)CC2)cc1)C1CCS(=O)(=O)C1 (stereo unspecified) | – | inactive: -5.62% |
| Cc1ncc(CO)c2cc(C(N)=O)c(=Nc3ccccc3)oc12 | inconclusive: 16.4 µM [inhibitor, single point] | – |
| N#Cc1c(-c2ccccc2)nc(-c2ccccc2)[nH]c1=O | – | inactive: 22.2% |
| CCC(C)NC(=O)Cn1c(=O)n(Cc2ccc(C(=O)NCc3ccccc3OC)cc2)c(=O)c2ccccc21 (stereo unspecified) | – | inactive: -1.71% [at 46.1 µM] |
| CNC(=O)c1cccc(NC(=O)C(C)c2ccc3cc(OC)ccc3c2)c1 (stereo unspecified) | – | inactive: -15.1% |
| O=C1COc2ccc(C(=O)COC(=O)c3ccccc3[N+](=O)[O-])cc2N1 | – | inactive: 1.21% |
| Cc1cc(N/N=C/c2ccc(Cl)cc2)nc(NCc2ccccc2)n1 | inconclusive: 35.5 µM [inhibitor, partial curve, poor fit] | – |
| S=C(Nc1ccc2snnc2c1)N1CCN(c2ccccn2)CC1 | inconclusive: 3.16 µM [activator, single point] | – |
| O=C(COc1ccc(/C=N/NC(=O)c2ccccc2Br)cc1)Nc1ccccc1 | inconclusive: 17.8 µM [inhibitor, single point] | – |
| COc1ccc(S(=O)(=O)N2CCCC2)cc1NC(=O)c1ccccc1F | – | inactive: -2.68% |
| CCN(CC)c1nn2c(=O)c(C(=O)NCc3cccc(C)c3)cnc2s1 | inconclusive: 5.62 µM [inhibitor, partial curve, poor fit] | – |
| COc1ccccc1OCC(=O)Nc1ccc2c(c1)C(=O)N(CC1CCCO1)C2=O (stereo unspecified) | inconclusive: 1.26 µM [inhibitor, single point] | – |
| CCOC(=O)c1c(C)nc2sc3c(=O)n(-c4ccc(C(C)=O)cc4)cnc3c2c1-c1ccc(OC)cc1 | – | inactive: -12.5% |
| CCSc1nc(O)c(C(c2cccc(OC)c2)c2c(O)nc(SCC)[nH]c2=O)c(=O)[nH]1 | inconclusive: 0.112 µM [inhibitor, partial curve, poor fit] | – |
| COc1ccc(S(=O)(=O)N2CCCC(C(=O)NCc3ccccc3)C2)cc1 (stereo unspecified) | inconclusive: 10 µM [activator, partial curve, poor fit] | – |
| O=C1COc2ccc(C(=O)COC(=O)c3ccccn3)cc2N1 | inconclusive: 7.94 µM [activator, partial curve, poor fit] | – |
| O=S(=O)(Nc1ccc(N=Nc2ccccc2)cc1)c1ccccc1 | – | inactive: 2.25% |
| COCCn1c(SCC(=O)NCc2ccccc2)nc2ccccc21 | inconclusive: 11.2 µM [activator, partial curve, poor fit] | – |
| FC(F)(F)c1cnc(NNC(=S)Nc2ccc(Cl)cc2)c(Cl)c1 | inconclusive: 25.1 µM [inhibitor, single point] | – |
| COc1ccc(C(OCC(O)CNCCc2ccccc2)c2ccc(OC)cc2)cc1 (stereo unspecified) | inconclusive: 20 µM [inhibitor, single point] | – |

| SMILES | Potency | activity change, negative = inhibition |
| --- | --- | --- |
| CC/C(=N\NC(=O)CCC(=O)NCc1ccccc1)c1ccc(O)cc1 | inconclusive: 7.08 µM [inhibitor, partial curve, poor fit] | – |
| O=C(CCN1CCOCC1)N1CCCC(Nc2cccc(F)c2)C1 (stereo unspecified) | inconclusive: 6.31 µM [inhibitor, single point] | – |
| COc1cc(OC)c(C2C(C#N)=C(N)OC3=C2C(=O)CC(C)C3)cc1OC (stereo unspecified) | inconclusive: 29.1 µM [inhibitor, single point] | – |
| O=C(Nc1nc(-c2ccc(Cl)cc2)cs1)NC1CCCCC1 | inconclusive: 15.8 µM [inhibitor, single point] | – |
| CC(=O)c1c(C)[nH]c(C(=O)CN2C(=O)NC(C)(c3ccc4c(c3)OCCO4)C2=O)c1C (stereo unspecified) | – | inactive: -5.23% |
| Cc1ccccc1OCC(=O)N(Cc1ccc(N(C)C)cc1)CC1CCCO1 (stereo unspecified) | inconclusive: 8.91 µM [inhibitor, partial curve] | – |
| CCc1c(C)nc(SCC(=O)c2cccs2)c(C#N)c1C | inconclusive: 6.51 µM [activator, single point] | – |
| CC(=O)Nc1ccc(NC(=O)C2CC(=O)N(C(C)C)C2)cc1 (stereo unspecified) | inconclusive: 5.62 µM [inhibitor, single point] | – |
| CNC(=S)/N=C/NOCc1ccc(Cl)cc1Cl | inconclusive: 35.5 µM [inhibitor, single point] | – |
| C/C(=N\NC(=S)NCc1ccccc1)c1ccc(C)o1 | inconclusive: 7.94 µM [inhibitor, partial curve, poor fit] | – |
| O=C1CC(c2ccccc2)CC(O)=C1C=NCCN1CCNCC1 (stereo unspecified) | inconclusive: 1.26 µM [inhibitor, single point] | – |
| COCCn1c(C)cc(O)c(C(c2ccc(C)cc2)N2CCCCC2)c1=O (stereo unspecified) | – | inactive: -20.6% [at 46.1 µM] |
| O=c1[nH]c2ccccc2n1CCCSc1cnc2ccccc2n1 | inconclusive: 14.1 µM [activator, single point] | – |
| O=S1(=O)CCC(NC2CCCC2)C1 (stereo unspecified) | inconclusive: 1.26 µM [inhibitor, single point] | – |
| O=C(c1ccc(=O)oc1)N1CCN(C(c2ccccc2)c2ccccc2)CC1 | inconclusive: 0.146 µM [activator, full curve, poor fit] | – |
| COc1ccccc1N(CC(=O)Nc1ccc(C)c(Cl)c1)S(=O)(=O)c1ccc(C)cc1 | inconclusive: 12.6 µM [inhibitor, partial curve, poor fit] | – |
| Cc1onc(-c2ccccc2)c1-c1nnc(-c2ccccc2C(F)(F)F)o1 | – | inactive: -26.3% [at 46.1 µM] |
| O=C(C1CCC1)N1CCCc2cc(S(=O)(=O)Nc3ccc(F)cc3)ccc21 | inconclusive: 35.5 µM [inhibitor, single point] | – |
| Cc1ccc(/C=C/C(=O)N2CCCC(C)C2)cc1 (stereo unspecified) | inconclusive: 17.8 µM [inhibitor, single point] | – |
| Cc1sc2nc(CN3CCCCC3)nc(Cl)c2c1C | inconclusive: 25.1 µM [inhibitor, single point] | – |
| CCCN1C(=O)c2ccccc2NC1c1ccc(Br)cc1 (stereo unspecified) | inconclusive: 35.5 µM [inhibitor, single point] | – |
| COc1ccc(CNc2nc(-c3ccco3)nn2C(=O)c2ccccc2Cl)cc1 | inconclusive: 6.31 µM [activator, full curve, poor fit] | – |
